# Assay results: patent US20160235727A1, “NOVEL PYRROLIDINE DERIVED BETA 3 ADRENERGIC RECEPTOR AGONISTS” (Merck Sharp & Dohme Corp., priority 2013, published 2016)
# Protein sequences, listed by entry. Tags and fused reporters are not part of them.
# UniProt P13945, whole entry: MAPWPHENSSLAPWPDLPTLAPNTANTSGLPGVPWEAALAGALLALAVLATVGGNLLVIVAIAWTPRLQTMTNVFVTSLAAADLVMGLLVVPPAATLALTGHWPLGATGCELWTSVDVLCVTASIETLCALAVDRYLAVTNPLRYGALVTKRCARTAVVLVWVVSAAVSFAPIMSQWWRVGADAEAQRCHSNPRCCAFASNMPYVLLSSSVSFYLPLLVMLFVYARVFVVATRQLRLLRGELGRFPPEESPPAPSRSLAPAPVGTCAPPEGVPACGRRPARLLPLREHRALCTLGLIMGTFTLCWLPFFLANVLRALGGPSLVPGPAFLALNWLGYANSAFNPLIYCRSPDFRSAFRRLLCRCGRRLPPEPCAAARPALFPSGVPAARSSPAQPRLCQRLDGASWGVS
# The match of structure and compound is tentative.
# Target: human β3-AR (Homo sapiens, UniProt P13945)
# Assay: cAMP functional agonist assay (LANCE TR-FRET) in CHO cells expressing cloned human β3-AR
# Conditions: tested form: TFA
smiles,measurement,setting,value
Cc1cc(CN(C)Cc2ccc(C[C@@H]3CC[C@H]([C@H](O)c4ccc(Cl)cc4)N3)cc2)cnc1F,Fold drop in potency vs. 2-chloropyridine analog,EC50 of comparative example divided by EC50 of corresponding 2-chloropyridine compound,5.7 fold
same,Human β3-AR Agonist Activity (%),percent maximum activation relative to isoproterenol,95%
same,EC50,"read-out: Human β3-AR Agonism EC50, CHO cells stably expressing cloned human β3-adrenoceptor, cAMP release",3 nM
